Reference: patent US12589171B2, “177-Lu labeled peptide for site-specific uPAR-targeting” (priority 2012, dated 2026)
Where “and” joins values, the source holds several entries; their conditions need not be identical. Identical values can stand only once. Entries after “also recorded” stand apart in the source; their conditions may differ. At least one peptide structure holds a part that was inferred or is arguable (an end, a ring closure or a residue). Residues, ends and D or L forms follow the SMILES beside them.

The chains behind the UniProt entries cited, without tags or fusion partners. Residues count along the entry.
UniProt Q03405, 23-305: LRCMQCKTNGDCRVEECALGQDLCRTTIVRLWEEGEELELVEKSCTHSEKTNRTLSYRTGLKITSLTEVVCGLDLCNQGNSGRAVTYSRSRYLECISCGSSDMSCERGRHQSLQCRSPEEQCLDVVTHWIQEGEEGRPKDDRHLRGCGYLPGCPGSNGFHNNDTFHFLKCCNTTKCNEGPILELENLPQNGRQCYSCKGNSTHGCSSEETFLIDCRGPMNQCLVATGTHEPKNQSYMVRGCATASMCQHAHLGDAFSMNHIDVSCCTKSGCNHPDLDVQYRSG

How the values were obtained:
uPAR = uPAR ELISA on resected HT-29 tumors; type: in vivo, human; settings: day 14, compared with control groups
HT-29 tumor xenograft = experiment: Radionuclide therapy of subcutaneous HT-29 xenografts, tumor volume by CT; type: in vivo, NMRI nude mice; settings: 20 MBq day 0 and day 7
PC-3M.Luc [1] = experiment: Disseminated metastatic prostate cancer model, bioluminescence imaging; type: in vivo, NMRI nude mice; settings: for mice with no distant metastases: day 64 post first dose (FIG. 10); for mice with no distant metastases (Metastatic-free day 65): day 65 post first dose; for Median metastatic-free time: time until first metastatic lesion (excluding heart)
PC-3M.Luc [2] = experiment: uPAR PET imaging for identification of micrometastatic lesions; type: in vivo, NMRI nude mice; settings: study day 31; scan 22 hr post injection
human uPAR = biological target: T1, human uPAR (Homo sapiens, UniProt Q03405); experiment: In vitro cell binding using PC-3M; type: cell-based; settings: PC-3M cells; p<0.01
T1 construct: made in house

SMILES	uPAR expression level in tumor extracts (ELISA) (uPAR)	average tumor size (HT-29 tumor xenograft; day 14, CT)	Progression (number of mice) (PC-3M.Luc [1]; 3 × 18 MBq)	Stable disease/response (number of mice) (PC-3M.Luc [1]; 3 × 18 MBq)	mean change in the number of tumor lesions/mouse (PC-3M.Luc [1]; day 2 to day 30, 3 doses approx. 18 MBq one week apart)	mice with no distant metastases (PC-3M.Luc [1])	mice with no distant metastases (Metastatic-free day 65) (PC-3M.Luc [1])	Median metastatic-free time (PC-3M.Luc [1])	tumor lesions present using BLI detected by uPAR PET (PC-3M.Luc [2])	effect on tumor volume compared with control groups (HT-29 tumor xenograft; day 6 and day 8)	cell binding compared with 177Lu-DOTA-AE105mut (human uPAR)
CC(C)C[C@H](NC(=O)[C@H](Cc1ccc(O)cc1)NC(=O)[C@@H](CCCNC(=N)N)NC(=O)[C@@H](CO)NC(=O)[C@H](CCC(=O)O)NC(=O)[C@H](CC1CCCCC1)NC(=O)[C@H](CC(=O)O)NC(=O)CN1CCN(CC(=O)O)CCN(CC(=O)O)CCN(CC(=O)O)CC1)C(=O)N[C@@H](CCC(=O)O)C(=O)N[C@@H](CO)C(N)=O [^177Lu-DOTA-AE105mut, metal not drawn, reference compound] (HELM PEPTIDE1{[O=C(O)CN1CCN(CC(=O)O)CCN(CC(=O)[*:2])CCN(CC(=O)O)CC1].D.[Cha].E.[dS].[dR].Y.L.E.S.[am]}$$$$V2.0)	No difference was found between vehicle and control peptide	286±32 mm^3	5	3	0.63±0.53	24%	24%	16 days	–	–	–
CC(C)C[C@H](NC(=O)[C@H](Cc1ccc(O)cc1)NC(=O)[C@@H](CCCNC(=N)N)NC(=O)[C@@H](CO)NC(=O)[C@H](Cc1ccccc1)NC(=O)[C@H](CC1CCCCC1)NC(=O)[C@H](CC(=O)O)NC(=O)CN1CCN(CC(=O)O)CCN(CC(=O)O)CCN(CC(=O)O)CC1)C(=O)N[C@@H](Cc1c[nH]c2ccccc12)C(=O)N[C@@H](CO)C(N)=O [^64Cu-DOTA-AE105, metal not drawn]	–	–	–	–	–	–	–	–	4/4 and able to identify each tumor lesion in each mouse with high contrast	–	–
CC(C)C[C@H](NC(=O)[C@H](Cc1ccc(O)cc1)NC(=O)C(CCCNC(=N)N)NC(=O)C(CO)NC(=O)C(Cc1ccccc1)NC(=O)[C@H](CC1CCCCC1)NC(=O)[C@H](CC(=O)O)NC(=O)CN1CCN(CC(=O)O)CCN(CC(=O)O)CCN(CC(=O)O)CC1)C(=O)N[C@@H](Cc1c[nH]c2ccccc12)C(=O)N[C@@H](CO)C(N)=O (stereo partly shown) [^177Lu-DOTA-AE105, metal not drawn]	significantly reduced uPAR level; also recorded: significant reduced uPAR expression	–	1 out of 9 and 1	–	–	65%	65%	> 65 days	–	significant effect; also recorded: significant difference in tumor size	significant higher binding
